Our source for the AC50 and cell number change values is PubChem BioAssay AID2685 (National Center for Advancing Translational Sciences (NCATS), 2010).

The nature of this assay: qHTS Assay for Lipid Storage Modulators in Drosophila S3 Cells.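 On cell number change: cells counted by Cell Tracker Red CMTPX staining in the red channel.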 The settings on record: BODIPY lipid droplet fluorescence, 18-24 h; for cell number change: measured here: cell count max response, cells fed with added oleic acid. The method in brief:
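Drosophila S3 cells got compounds at several concentrations plus oleic acid (400 uM solution). Laser-scanning cytometry with 488 nm excitation read lipid droplets at 500-530 nm and cells at 575-640 nm. Percent activity was relative to 20 uM Triacsin C.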

[1] abbreviates: measured here: cell number channel AC50, cells fed with added oleic acid.
[2] abbreviates: measured here: lipid fluorescence (Fed channel) AC50, cells fed with added oleic acid.

The list shows a part of the results. Further columns of the screen follow, without active or inactive calls. The list favours compounds with an active or inconclusive main result. The note in brackets gives the kind of curve behind each potency; many fits are weak.

On to `O=C(Nc1nc2nc(-c3ccccc3)cc(-c3ccccc3)n2n1)c1ccco1`, for which, under setting [1], the concentration at half-maximal activity (AC50) was 20.6 nM [rising, full curve, poor fit].
As to `Nn1cnnc1SC1CCCCC1NS(=O)(=O)c1ccccc1` (stereo unspecified), the AC50 under setting [2] is 291 nM [rising, partial curve, poor fit].
Turning to `Cc1ccc(CCNC(=O)c2coc3nc4ccccc4nc23)cc1`, the cell number change was 9.96%. Besides, the half-maximal activity concentration (AC50) under setting [1] is 92 nM [rising, full curve, poor fit].
With `CCOC(=O)C(=O)Nc1ccc(S(=O)(=O)Nc2ncccn2)cc1`, the cell number change was -38.1%. The AC50 under setting [1] is 3660 nM [falling, full curve]. Moreover, the concentration at half-maximal activity (AC50) under setting [2] was 2590 nM [falling, full curve].
In the case of `O=C(O)CCC(=O)N1N=C(c2ccc(Br)cc2)CC1c1cccs1` (stereo unspecified), the cell number change was -49.4%. Besides, the AC50 under setting [1] was 16400 nM [falling, single point].
In the case of `COC(=O)c1c(NC(=O)C2Cc3ccccc3C(=O)O2)sc2c1CCCC2` (stereo unspecified), the cell number change came to 4.71%.
As to `CCCNC(=O)NNC(=O)c1ccc(F)cc1`, the cell number change is -13.8%. For the same molecule, the half-maximal activity concentration (AC50) under setting [2] was 2060 nM [falling, single point].
With `CN(C)c1ccc(C(C(=O)NCC2CCCO2)N(Cc2ccco2)C(=O)c2snc(C(N)=O)c2N)cc1` (stereo unspecified), the cell number change amounted to 3.85%. In addition, under setting [2], the concentration at half-maximal activity (AC50) was 65.1 nM [rising, partial curve].
For `CCOc1cc(CNS(=O)(=O)c2ccc3c(c2)CC(=O)N3C)cc(OCC)c1OCC`, the AC50 under setting [2] is 366 nM [rising, single point].
For `Cn1c(=O)c2c(ncn2CC(=O)N2CCN(S(=O)(=O)c3ccccc3)CC2)n(C)c1=O`, the cell number change stood at 5.22%. Besides, under setting [2], the half-maximal activity concentration (AC50) is 501 nM [rising, full curve, poor fit].
In the case of `c1ccc2c(c1)nc1n2CCN1CCN1CCCC1`, the cell number change was 2.24%. The AC50 under setting [2] is 4.61 nM [rising, full curve, poor fit].
Turning to `COC(=O)[C@@]12CCCN1[C@H](c1ccc(-c3ccc(OC)cc3)cc1)[C@@H]1C(=O)N(C)C(=O)[C@@H]12`, the cell number change is -16.4%. Moreover, the AC50 under setting [2] is 580 nM [falling, full curve, poor fit].
With `Cc1nnc(SCC(=O)NC(C)(C)C)n1NCc1c(F)cccc1Cl`, the cell number change turned out to be 29.4%. For the same molecule, the AC50 under setting [2] is 4.61 nM [rising, full curve].
For the molecule `CC(C)C1C(C#N)=C(N)Oc2n[nH]c(-c3ccccc3)c21` (stereo unspecified), the cell number change is -31.5%. Moreover, the AC50 under setting [1] is 18400 nM [falling, single point]. In addition, the AC50 under setting [2] is 29100 nM [falling, single point].
`CCOC(=O)c1ccc(NC(=S)NN2CCN(C)CC2)cc1`: the cell number change was -12.4%. Moreover, the half-maximal activity concentration (AC50) under setting [1] is 6510 nM [falling, single point]. Further, under setting [2], the concentration at half-maximal activity (AC50) was 11600 nM [falling, partial curve].
With `O=C(NCc1cccs1)c1ccc(CS(=O)(=O)c2ccc(Cl)cc2)o1`, the AC50 under setting [1] was 731 nM [rising, full curve] and the concentration at half-maximal activity (AC50) under setting [2] was 411 nM [rising, partial curve, poor fit].
As for `O=C(COc1ccc(/C=C\[N+](=O)[O-])cc1)N1CCOCC1`, the cell number change is -91.9%. In addition, the AC50 under setting [1] is 29100 nM [falling, single point]. Further, the half-maximal activity concentration (AC50) under setting [2] is 29100 nM [falling, single point].
For `O=C(CC(c1ccccc1)c1cc(Br)ccc1O)N1CCCC1` (stereo unspecified), the cell number change was -43.8%. Also, the AC50 under setting [2] is 708 nM [falling, full curve].
Take `CCS(=O)(=O)n1nc(-c2cccnc2)nc1NCc1ccc(F)cc1`: the cell number change was 17.3%. The concentration at half-maximal activity (AC50) under setting [2] is 65.1 nM [rising, full curve, poor fit].
`CCOC(=O)C1=C(O)/C(=C/c2ccc(OCC(=O)O)c(OCC)c2)SC1=Nc1ccc(C)cc1`: the cell number change came to 12.4%. The AC50 under setting [2] was 2060 nM [rising, single point].
For the molecule `O=C(NCc1ccccn1)C(=O)NCC1OCCN1S(=O)(=O)c1ccc([N+](=O)[O-])cc1` (stereo unspecified), the cell number change was 23.3%. In addition, under setting [2], the half-maximal activity concentration (AC50) was 116 nM [rising, full curve, poor fit].
Turning to `O=C(NNC(=O)c1ccc2c(=O)n3c(nc2c1)CCC3)c1ccc(Cl)cc1`, the cell number change is -0.0627%.
In the case of `O=[N+]([O-])c1ccc(O)c(/C=N/n2c(-c3ccccc3)n[nH]c2=S)c1`, the cell number change is -11.3%. Further, the AC50 under setting [2] is 6510 nM [rising, single point].
Turning to `COc1ccc(N2CCN(C(=O)CSc3nnc(-c4cccnc4)n3-c3ccccc3)CC2)cc1`, the AC50 is 820 nM [rising, full curve, poor fit] under setting [1] and 73.1 nM [falling, single point] under setting [2].
With `O=C(CN(CC1CCCO1)C(=O)CNS(=O)(=O)c1ccc(F)cc1)NCc1ccc(F)cc1` (stereo unspecified), the cell number change was determined as 14.1%.
With `CCN(CC)S(=O)(=O)c1cccc(NC(=O)COc2ncnc3sccc23)c1`, the cell number change is 65.8%. For the same molecule, under setting [1], the AC50 was 18400 nM [rising, partial curve]. Besides, under setting [2], the half-maximal activity concentration (AC50) is 3260 nM [rising, single point].
For the molecule `Cc1ccc(S(=O)(=O)NCC(=O)NCC(=O)NCCc2ccccc2F)cc1C`, the cell number change was 8.53%. The half-maximal activity concentration (AC50) under setting [2] was 820 nM [rising, full curve, poor fit].
As to `O=C(Cc1ccc(Br)cc1)N/N=C/c1ccc(-c2cccc(C(=O)O)c2)o1`, the cell number change was 9.01%. The concentration at half-maximal activity (AC50) under setting [2] was 366 nM [rising, single point].
Consider `COc1ccc(/C=C/C2=NC(=C\N(C)C)/C(=O)O2)cc1`, for which the cell number change is -22%. Further, under setting [2], the concentration at half-maximal activity (AC50) was 16400 nM [falling, single point].
On to `NS(=O)(=O)c1ccc(CNC(=O)c2cc(-c3cccs3)nc3ccccc23)cc1`, for which the cell number change is -3.84%.
Take `CO/N=C(/CNC(=O)c1ccc(Cl)cc1Cl)c1ccc(Cl)cc1`: the AC50 under setting [2] is 461 nM [rising, full curve, poor fit].
In the case of `Cc1ccccc1OCC(=O)Nc1ccc(C(=O)Nc2ccccc2C(=O)O)cc1`, the cell number change stood at 31.4%. In addition, the AC50 under setting [2] is 5800 nM [rising, full curve].
For `CCCCN(C(=O)CCSc1ccc(F)cc1)c1c(N)n(Cc2ccccc2)c(=O)[nH]c1=O`, the AC50 under setting [2] is 517 nM [falling, full curve, poor fit].
On to `C=CCO/N=C(/C)c1ccc(Oc2cnccn2)cc1`, for which the cell number change was 39%. Besides, the AC50 under setting [1] was 20600 nM [rising, single point].
On to `Cc1cccc(S(=O)(=O)NCCc2cn3ccccc3n2)c1`, for which the cell number change worked out at 24.4%. In addition, the concentration at half-maximal activity (AC50) under setting [1] was 164 nM [rising, full curve, poor fit]. Besides, the concentration at half-maximal activity (AC50) under setting [2] is 29100 nM [falling, single point].
Consider `O=C(CCN1CCN(c2ccc(Cl)cc2)CC1)Nc1ccccc1F`, for which the cell number change was -0.99%. The concentration at half-maximal activity (AC50) under setting [2] was 92 nM [rising, full curve, poor fit].
As for `O=C1N(c2cccc3ccccc23)C(c2ccccc2)N2CCCN12` (stereo unspecified), the cell number change is 82.8%. In addition, under setting [1], the AC50 is 23100 nM [rising, single point]. The AC50 under setting [2] was 29100 nM [rising, single point].
For `CN(CC(=O)Nc1ccccc1Cl)C(=O)COC(=O)c1cnccn1`, the cell number change is -40.5%. In addition, the AC50 under setting [1] was 29100 nM [falling, single point].
With `CCOc1ccc2c(c1)c1nnc(SCC3CCCO3)nc1n2C` (stereo unspecified), the cell number change was -13.8%.
As for `COc1cc(C(=O)NCC(=O)N/N=C/c2ccc(-c3ccc([N+](=O)[O-])cc3)o2)cc(OC)c1OC`, the cell number change was determined as 27.7%. Further, the AC50 under setting [2] is 29100 nM [rising, single point].
In the case of `Cc1cc(OCC(=O)Nn2cnnc2)ccc1Br`, the cell number change was found to be 1.75%.
With `CCN(CC)S(=O)(=O)c1ccc(N2CCN(c3ccccc3O)CC2)nc1`, the cell number change was -31.6%. Also, the AC50 under setting [1] is 7310 nM [falling, partial curve, poor fit].
`O=C(O)CN(c1ccc2c(c1)OCCO2)S(=O)(=O)c1ccccc1`: the cell number change was -16%.
Consider `Cc1cc(Nc2ccccc2)nc(N)n1`, for which the cell number change turned out to be 22.4%. Besides, the AC50 under setting [2] is 32600 nM [rising, single point].
Turning to `N#Cc1cc([N+](=O)[O-])ccc1Oc1cccc(/C=N/NC(=O)c2ccc(Cl)cc2)c1`, the cell number change amounted to 2.71%.
Turning to `CN(CC(=O)N1CC=C(c2ccccc2)CC1)S(=O)(=O)c1ccc2c(c1)c(=O)n(C)c(=O)n2C`, the cell number change turned out to be 9.4%. For the same molecule, the concentration at half-maximal activity (AC50) under setting [2] was 10300 nM [rising, single point].
Turning to `C=CCn1c(C(CC)CC)nc2ccccc21`, the cell number change stood at 29.7%. Moreover, under setting [1], the AC50 is 4.61 nM [rising, full curve, poor fit].
As to `Cc1cccc(N2CCN(C(=O)c3cccc(NC4=NC5CS(=O)(=O)CC5S4)c3)CC2)c1C` (stereo unspecified), the cell number change stood at 8.07%. Also, the AC50 under setting [2] was 164 nM [falling, full curve, poor fit].
For `O=C(COc1ccccc1Cl)N1CCc2ccccc21`, the cell number change was found to be 11.7%. Moreover, the half-maximal activity concentration (AC50) under setting [2] is 18400 nM [rising, single point].
For `COc1cccc(C(=O)NNc2c3ccccc3nc3ccccc23)c1`, the cell number change is -15.9%. For the same molecule, the half-maximal activity concentration (AC50) under setting [2] is 29100 nM [falling, single point].
As for `O=C(N1CCCC1)n1c(Cc2ccccc2)nc2ccccc21`, the AC50 under setting [1] is 1160 nM [falling, full curve].
With `CCOc1ccc(NS(=O)(=O)c2ccc(C(=O)N(C)CCc3ccc(OC)c(OC)c3)cc2)cc1`, the cell number change is -25.7%.
On to `Cc1[nH]n(-c2ccccc2)c(=O)c1C=NCCc1ccccc1`, for which the cell number change is -15.3%. Besides, the half-maximal activity concentration (AC50) under setting [2] was 5170 nM [falling, single point].
As for `CCOC(=O)c1c(NC(=O)COC(=O)c2ccc(C)s2)sc2c1CC(C)(C)NC2(C)C`, the cell number change is -34.4%. Under setting [1], the concentration at half-maximal activity (AC50) was 16400 nM [falling, single point].
As for `COc1ccc(C(=O)N[C@H](C(=O)OCn2nnc3ccccc3c2=O)C(C)C)cc1`, the cell number change was 5.49%. Under setting [2], the AC50 was 5.17 nM [rising, full curve, poor fit].
Consider `N#CC1=C(Nc2ccccc2Cl)SC(c2ccccc2O)NC1=O` (stereo unspecified), for which the cell number change was -47.8%. Also, under setting [1], the AC50 was 20600 nM [falling, single point]. For the same molecule, the AC50 under setting [2] was 29100 nM [falling, single point].
Regarding `c1ccc(C2CSc3ccccc3N2)cc1` (stereo unspecified), the cell number change is -39%. Further, the AC50 under setting [1] is 20600 nM [falling, single point]. Moreover, the concentration at half-maximal activity (AC50) under setting [2] is 8200 nM [falling, partial curve].
Regarding `CC(C)(C)OC(=O)Nc1ccc([C@@H](NC(=O)OC(C)(C)C)C(=O)OC(C)(C)C)cc1`, the cell number change is -0.678%. Moreover, under setting [2], the concentration at half-maximal activity (AC50) was 146 nM [rising, single point].
For the molecule `CCOC(=O)C1=C(C)N=c2s/c(=C\C(=O)OC)c(=O)n2C1c1ccc(OC)cc1` (stereo unspecified), the cell number change was -27%.

As a reminder, the AC50 is the concentration giving half of the maximal activity seen. The low end stands for activity at low concentration, the high end for activity only at high concentration.
